Assay: general procedure: solution-phase peptide synthesis; HATU
Conditions: for step yield: late stage modification step

((2R,3R)-3-((S)-1-((3R,4S,5S)-4-((S)-2-((S)-2-(4-(hydroxydimethylsilyl)-N-methylbutanamido)-3-methylbutanamido)-N,3-dimethylbutanamido)-3-methoxy-5-methylheptanoyl)pyrrolidin-2-yl)-3-methoxy-2-methylpropanoyl)-L-phenylalanine
crude LC-MS purity (conjugation step): 80% | step yield: 33.4%

(R)—N-((3S,4R,5R)-1-((R)-2-((1S,2S)-3-(((1R,2S)-1-hydroxy-1-phenylpropan-2-yl)amino)-1-methoxy-2-methyl-3-oxopropyl)pyrrolidin-1-yl)-3-methoxy-5-methyl-1-oxoheptan-4-yl)-2-((R)-2-(3-(3-(hydroxydimethylsilyl)propyl)-1-methylureido)-3-methylbutanamido)-N,3-dimethylbutanamide
step yield: 40.8%

(R)—N-((3S,4R,5R)-1-((R)-2-((1S,2S)-3-(((1R,2S)-1-hydroxy-1-phenylpropan-2-yl)amino)-1-methoxy-2-methyl-3-oxopropyl)pyrrolidin-1-yl)-3-methoxy-5-methyl-1-oxoheptan-4-yl)-2-((R)-2-(4-(hydroxydimethylsilyl)-N-methylbutanamido)-3-methylbutanamido)-N,3-dimethylbutanamide
step yield: 45%

(S)—N-((3R,4S,5S)-1-((S)-2-((3R,4R,7S)-7-benzyl-13-hydroxy-4,13-dimethyl-5,8-dioxo-2-oxa-6,9-diaza-13-silatetradecan-3-yl)pyrrolidin-1-yl)-3-methoxy-5-methyl-1-oxoheptan-4-yl)-2-((S)-2-(dimethylamino)-3-methylbutanamido)-N,3-dimethylbutanamide
step yield: 32.5%
